Experimental data taken from PMC3764210.
These are yes or no findings as the source states them, for the method shown. Binding seen in cells or lysates may run through a third protein. Some binding calls cover weakened binding; strength is not graded here.

T1: SPCLIP1 (Anopheles gambiae (endogenous in G3 strain hemolymph))
T1 sequence: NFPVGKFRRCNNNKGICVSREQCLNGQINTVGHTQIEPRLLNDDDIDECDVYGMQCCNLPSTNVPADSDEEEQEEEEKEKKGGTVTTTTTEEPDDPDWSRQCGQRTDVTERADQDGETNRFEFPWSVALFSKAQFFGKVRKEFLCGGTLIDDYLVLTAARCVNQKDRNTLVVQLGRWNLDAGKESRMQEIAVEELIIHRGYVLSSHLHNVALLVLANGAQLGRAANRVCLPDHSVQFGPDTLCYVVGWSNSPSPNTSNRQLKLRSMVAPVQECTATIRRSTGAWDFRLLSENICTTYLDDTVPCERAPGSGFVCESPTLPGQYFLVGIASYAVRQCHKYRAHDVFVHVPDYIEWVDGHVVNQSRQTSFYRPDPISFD


Legend:
[1] = molecular target: T1, SPCLIP1 (Anopheles gambiae (endogenous in G3 strain hemolymph)); assay: condition: only mock challenge (PBS injection), without E. coli bioparticles; co-IP; as a1, but hemolymph collected 15 min after mock challenge (PBS injection, no E. coli bioparticles)
[2] = molecular target: T1, SPCLIP1 (Anopheles gambiae (endogenous in G3 strain hemolymph)); assay: co-IP; agarose beads cross-linked to affinity purified anti-SPCLIP1 antibody (Pierce Co-IP kit); cleared hemolymph of 100 mosquitoes collected 15 min after E. coli bioparticle injection into PBS with 0.05% Triton X-100 and protease inhibitors; overnight at 4 °C; TEP1 detected by reducing western blot

Binder	binding [1]	binding [2]
TEP1cut (protein, UniProt Q9GYW4 22-1340) LLVVGPKFIRANQEYTLVISNFNSQLSKVDLLLKLEGETDNGLSVLNVTKMVDVRRNMNRMINFNMPEELTAGNYKITIDGQRGFSFHKEAELVYLSKSISGLIQVDKPVFKPGDTVNFRVILLDTELKPPARVKSVYVTIRDPQRNVIRKWSTAKLYAGVFESDLQIVPTPMLGVWNISVEVEGEELVSKTFEVKEYVLSTFDVQVMPSVIPLEEHQAVNLTIEANYHFGKPVQGVAKVELYLDDDKLNQKKELTVYGKGQVELRFDNFAMDADQQDVRVKVSFIEQYTNRTVVKQSQITVYRYAYRVELIKESPQFRPGLPFKCALQFTHHDGTPAKGITGKVEVSDVGFETTTTSDNDGLIKLELQPSEGTEQLGINFNAVDGFFFYEDVNKVETVTDAYIKLELKSPIKRNKLMRFMVTCTERMTFFVYYVMSKGNIIDAGFMRPNKQTKYLLQLNATEKMIPKAKILIATVAGRTVVYDYADLDFQELRNNFDLSIDEQEIKPGRQIELSMSGRPGAYVGLAAYDKALLLFNKNHDLFWEDIGQVFDGFHAINENEFDIFHSLGLFARTLDDILFDSANEKTGRNALQSGKPIGKLVSYRTNFQESWLWKNVSIGRSGSRKLIEVVPDTTTSWYLTGFSIDPVYGLGIIKKPIQFTTVQPFYIVENLPYSIKRGEAVVLQFTLFNNLGAEYIADVTLYNVANQTEFVGRPDTDLSYTKSVSVPPKVGVPISFLIKARKLGEMAVRVKASIMLGHETDALEKVIRVMPESLAQPKMDTSFFCFDDYKNQTFPFNLDINKKADNGSKKIEFRLNPNLLTMVIKNLDNLLAVPTGCGEQNMVKFVPNILVLDYLYATGSKEQHLIDKATNLLRQGYQNQMRYRQTDGSFGVWEKSGSSVFLTAFVATSMQTASKYMNDIDAAMVEKALDWLASKQHSSGRFDETGKVWHKDMQGGLRNGVALTSYVLTALLENDIAKVKHAVVIQNGMNYLSNQLAFINNPYDLSIATYAMMLNGHTMKKEALDKLIDMSISDNNKKERYWGTTNQIETTAYALLSFVMAEKYLDGIPVMNWLVNQRYVTGSFPRTQDTFVGLKALTKLAEKISPSRNDYTVQLKYKKNTKYFNINSEQIDVQNFLEIPEDTKKLEINVGGIGFGLLEVIYQFDLNLVNFEHRFKLDLEKQNTGSDYELRLRVCANYIPELTDSQSNMALIEVTLPSGYVVDRNPISEQTTVNPIQNMEIRYGGTSVVLYYYKMGTERNCFTVTAYRRFKVALKRPAYVVVYDYYNTNLNAIKVYEVDKQNVCEICEEEDCPAECKK	no binding	binds
TEP1-F (protein, UniProt Q9GYW4 22-1340) LLVVGPKFIRANQEYTLVISNFNSQLSKVDLLLKLEGETDNGLSVLNVTKMVDVRRNMNRMINFNMPEELTAGNYKITIDGQRGFSFHKEAELVYLSKSISGLIQVDKPVFKPGDTVNFRVILLDTELKPPARVKSVYVTIRDPQRNVIRKWSTAKLYAGVFESDLQIVPTPMLGVWNISVEVEGEELVSKTFEVKEYVLSTFDVQVMPSVIPLEEHQAVNLTIEANYHFGKPVQGVAKVELYLDDDKLNQKKELTVYGKGQVELRFDNFAMDADQQDVRVKVSFIEQYTNRTVVKQSQITVYRYAYRVELIKESPQFRPGLPFKCALQFTHHDGTPAKGITGKVEVSDVGFETTTTSDNDGLIKLELQPSEGTEQLGINFNAVDGFFFYEDVNKVETVTDAYIKLELKSPIKRNKLMRFMVTCTERMTFFVYYVMSKGNIIDAGFMRPNKQTKYLLQLNATEKMIPKAKILIATVAGRTVVYDYADLDFQELRNNFDLSIDEQEIKPGRQIELSMSGRPGAYVGLAAYDKALLLFNKNHDLFWEDIGQVFDGFHAINENEFDIFHSLGLFARTLDDILFDSANEKTGRNALQSGKPIGKLVSYRTNFQESWLWKNVSIGRSGSRKLIEVVPDTTTSWYLTGFSIDPVYGLGIIKKPIQFTTVQPFYIVENLPYSIKRGEAVVLQFTLFNNLGAEYIADVTLYNVANQTEFVGRPDTDLSYTKSVSVPPKVGVPISFLIKARKLGEMAVRVKASIMLGHETDALEKVIRVMPESLAQPKMDTSFFCFDDYKNQTFPFNLDINKKADNGSKKIEFRLNPNLLTMVIKNLDNLLAVPTGCGEQNMVKFVPNILVLDYLYATGSKEQHLIDKATNLLRQGYQNQMRYRQTDGSFGVWEKSGSSVFLTAFVATSMQTASKYMNDIDAAMVEKALDWLASKQHSSGRFDETGKVWHKDMQGGLRNGVALTSYVLTALLENDIAKVKHAVVIQNGMNYLSNQLAFINNPYDLSIATYAMMLNGHTMKKEALDKLIDMSISDNNKKERYWGTTNQIETTAYALLSFVMAEKYLDGIPVMNWLVNQRYVTGSFPRTQDTFVGLKALTKLAEKISPSRNDYTVQLKYKKNTKYFNINSEQIDVQNFLEIPEDTKKLEINVGGIGFGLLEVIYQFDLNLVNFEHRFKLDLEKQNTGSDYELRLRVCANYIPELTDSQSNMALIEVTLPSGYVVDRNPISEQTTVNPIQNMEIRYGGTSVVLYYYKMGTERNCFTVTAYRRFKVALKRPAYVVVYDYYNTNLNAIKVYEVDKQNVCEICEEEDCPAECKK	no binding	binds weakly
